{"source": "paper PMC11840119", "biological_target": "T1, Lon protease 1 (LONP1) (human (endogenous in PC3 and DU145)) (UniProt P36776)", "T1 sequence": "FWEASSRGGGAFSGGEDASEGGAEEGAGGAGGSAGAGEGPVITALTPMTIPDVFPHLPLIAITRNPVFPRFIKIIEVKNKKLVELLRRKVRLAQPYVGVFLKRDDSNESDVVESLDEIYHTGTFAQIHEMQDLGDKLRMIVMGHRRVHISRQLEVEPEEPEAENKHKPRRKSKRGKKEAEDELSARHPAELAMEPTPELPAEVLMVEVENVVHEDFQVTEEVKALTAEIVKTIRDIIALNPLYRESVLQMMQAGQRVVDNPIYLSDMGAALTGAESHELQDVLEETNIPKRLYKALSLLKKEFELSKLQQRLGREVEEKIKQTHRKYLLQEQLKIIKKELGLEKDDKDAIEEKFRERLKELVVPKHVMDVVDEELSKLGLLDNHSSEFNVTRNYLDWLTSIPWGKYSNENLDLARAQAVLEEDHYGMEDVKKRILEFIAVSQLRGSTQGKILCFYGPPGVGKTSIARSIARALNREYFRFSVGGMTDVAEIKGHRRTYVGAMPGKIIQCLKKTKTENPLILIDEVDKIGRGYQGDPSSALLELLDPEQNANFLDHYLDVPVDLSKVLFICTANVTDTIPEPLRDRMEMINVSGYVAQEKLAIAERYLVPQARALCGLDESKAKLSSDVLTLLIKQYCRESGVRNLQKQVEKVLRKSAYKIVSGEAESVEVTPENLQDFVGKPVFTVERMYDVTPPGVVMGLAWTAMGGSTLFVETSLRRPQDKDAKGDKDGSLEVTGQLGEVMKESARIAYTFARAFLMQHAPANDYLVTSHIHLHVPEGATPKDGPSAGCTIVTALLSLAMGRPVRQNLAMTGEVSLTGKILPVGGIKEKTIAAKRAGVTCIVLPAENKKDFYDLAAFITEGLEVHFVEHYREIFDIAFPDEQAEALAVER", "experiment": "co-IP; endogenous proteins in whole cell lysates of PC3 and DU145 cells; lysis buffer 1% NP-40, 50 mM Tris-HCl pH 7.4, 150 mM NaCl, 5 mM EDTA, 0.02% SDS; primary antibody or IgG control overnight at 4 °C, protein A/G agarose beads, PBS washes, Western blot", "note": "No constants are given. Whether binding was seen depends on the method and setting. Binding seen in cells or lysates may run through a third protein. Some binding calls cover weakened binding; strength is not graded here."}
{"binder": "mitochondrial pyruvate carrier 1 (MPC1) (protein, UniProt Q9Y5U8 1-109) MAGALVRKAADYVRSKDFRDYLMSTHFWGPVANWGLPIAAINDMKKSPEIISGRMTFALCCYSLTFMRFAYKVQPRNWLLFACHATNEVAQLIQGGRLIKHEMTKTASA", "values": [{"measurement": "binding", "result": "binds"}]}
